Source: PubChem BioAssay AID1487 (National Center for Advancing Translational Sciences (NCATS), 2009)
Some of the results follow. Shown are side measurements of this screen, not its main read-out; they come without a call. Most of these compounds were active or inconclusive in the main read-out, so they are no random draw. Potencies come from curve fits of mixed quality, noted in brackets.

Assay: qHTS Assay for Modulators of Lamin A Splicing
Conditions: HeLa LMNA splicing GFP/RFP minigene ratio, 48 h
How it was run: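 S3 HeLa cells stably expressing lamin A-EGFP splicing minigene plus DsRed2, 600 cells/well, 48 h compound exposure at 37C. Laser-scanning cytometry; analysed as GFP (500-530 nm)/RFP (575-640 nm) total intensity ratio; 0.5% DMSO vehicle.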

[1] = measured here: RFP viability control channel
[2] = measured here: GFP splicing reporter channel

Structure (SMILES)	AC50 [1]	AC50 [2]
O=[N+]([O-])c1cc(C(F)(F)F)ccc1NCCc1c[nH]c2ccccc12	35.5 µM [rising, single point]	
O=C(Nc1ccc(Cl)cc1)NC1CCCc2ccccc21 (stereo not drawn)	35.5 µM [falling, single point]	
O=C1OC2(CCCC2)OC(=O)C1=Cc1c[nH]c2ccccc12		5.01 µM [falling, full curve, poor fit]
COc1ccc(NS(=O)(=O)c2cc(C)ccc2NC(=O)c2cc(C)oc2C)cc1	0.501 µM [rising, full curve, poor fit]	
COCCn1c(-c2ccc(OC)cc2)cnc1SCC(=O)Nc1ccc(OC)cc1OC	11.2 µM [rising, partial curve, poor fit]	
CCn1c(C)nc2cc(S(=O)(=O)N3CCCC3)ccc21	17.8 µM [rising, partial curve]	
c1ccc(C(c2ccccc2)N2CCN(Cc3nnnn3C3CCCC3)CC2)cc1	35.5 µM [rising, single point]	17.8 µM [rising, single point]
Cc1ccc2oc(=O)cc(/C=C/c3ccccc3)c2c1	14.1 µM [rising, single point]	11.2 µM [rising, single point]
O=C(NCc1cccs1)c1cc(-c2ccccc2)on1	11.2 µM [rising, single point]	
O=C(CNCc1ccc(F)cc1)Nc1ccccc1-c1ccccc1	17.8 µM [rising, partial curve]	17.8 µM [rising, partial curve, poor fit]
O=C(Nc1cc(=O)[nH]c2ncnn12)c1ccccc1F	0.0447 µM [falling, full curve, poor fit]	
COc1ccccc1/C=N/NC(=O)c1ccc(-c2ccccc2)cc1	31.6 µM [rising, single point]	
c1ccc2c(CCNc3ncnc4nc[nH]c34)c[nH]c2c1	10 µM [rising, partial curve]	7.08 µM [rising, partial curve]
CCOC(=O)C1CCCN(C2CC(=O)N(c3ccccc3)C2=O)C1 (stereo not drawn)	0.0141 µM [falling, full curve, poor fit]	
COc1ccc(NC(=O)CSc2cc(C)ccc2C)cn1	7.94 µM [rising, partial curve, poor fit]	35.5 µM [rising, partial curve, poor fit]
CCCCn1c(-c2sccc2C)n[nH]c1=S	0.562 µM [falling, full curve]	0.126 µM [falling, full curve, poor fit]
CN(Cc1ccco1)c1ncncc1-c1ccccc1Cl	35.5 µM [falling, single point]	35.5 µM [falling, single point]
O=C(N/N=C/C=C/c1ccccc1[N+](=O)[O-])c1cc(-c2cccnc2)nc2ccccc12	11.2 µM [rising, partial curve]	
CCOc1ccccc1-c1nc(-c2ccc(NC(=O)Cc3ccc(OC)cc3)cc2)no1	12.6 µM [falling, partial curve, poor fit]	

Structure (SMILES)	AC50 [1]	AC50 [2]
O=C(NCc1ccc2c(c1)OCO2)c1cccc(C(=O)NCc2ccc3c(c2)OCO3)c1	17.8 µM [rising, partial curve]	17.8 µM [rising, partial curve]
Cc1ccc(NC2=CC(=O)CC(c3ccccc3)C2)cc1 (stereo not drawn)		10 µM [rising, single point]
COc1cc(/C=N/NC(=O)CC23CC4CC(CC(C4)C2)C3)cc(Br)c1OCC(=O)N(C)C		35.5 µM [rising, single point]
OCCCNc1nc(-c2ccc(Cl)cc2)nnc1-c1ccc(Br)cc1	14.1 µM [rising, single point]	17.8 µM [rising, single point]
Cc1ccc(C)c(C(C)NC(=O)c2ccccc2Br)c1 (stereo not drawn)	12.6 µM [rising, single point]	11.2 µM [rising, single point]
CCCC(=O)Nc1ccc(OC[C@@H](O)CNC(C)C)c(C(C)=O)c1	0.562 µM [falling, single point]	8.91 µM [falling, single point]
Cc1cc(C(C)(C)C)oc1C(=O)N(CC(=O)NC1CCCC1)c1c(C)cccc1C	25.1 µM [rising, single point]	
Cn1c(=O)c(C(=O)Nc2ccccn2)c(O)c2ccccc21	0.891 µM [rising, partial curve, poor fit]	
CCCCn1cc(S(=O)(=O)c2cc(C)ccc2C)c(=O)c2cc(F)c(N3CCC(C)CC3)cc21	3.55 µM [rising, single point]	
CCn1c(CCn2c3ccccc3c3ccccc32)n[nH]c1=S	20 µM [rising, single point]	14.1 µM [rising, single point]
N#CCCN1CCN(Cc2cc(-c3ccccc3)ccc2O)CC1	31.6 µM [rising, single point]	35.5 µM [rising, single point]
COc1ccccc1NC(=O)COc1ccc(Br)cc1CNCCCN1CCOCC1	2 µM [rising, full curve, poor fit]	
CSc1ncc(C(=O)Nc2ccccc2C(F)(F)F)c(-c2ccccc2)n1		0.0224 µM [rising, full curve, poor fit]
Cc1ccc(Nc2ncnc3c2cnn3-c2ccc(C)cc2)cc1	1.41 µM [falling, full curve]	1.26 µM [falling, full curve]
CC(C)Cc1csc(NC(=O)c2ccccc2Cl)c1C(=O)O	35.5 µM [rising, single point]	35.5 µM [rising, single point]
CC(=O)c1cccc2c(O)c(C3=Nc4ccccc4C3=O)[nH]c12	10 µM [falling, partial curve]	
CC(=O)c1cccc(S(=O)(=O)N(C)C2CCN(C)CC2)c1	0.141 µM [rising, full curve, poor fit]	
Cc1ccc(NC2=C(NC(=O)c3ccccc3)C(=O)c3ccccc3C2=O)cc1Cl	35.5 µM [rising, single point]	
Cc1ccc(S(=O)(=O)N(C)CC(=O)Nc2ccncc2)cc1	14.1 µM [rising, single point]	

Structure (SMILES)	AC50 [1]	AC50 [2]
NS(=O)(=O)c1cccc(NC(=O)CN2CCc3ccccc32)c1		3.55 µM [falling, full curve]
CCCCn1c(SCc2c(C)noc2C)nc2cc(S(N)(=O)=O)ccc21	14.1 µM [rising, single point]	6.31 µM [falling, full curve, poor fit]
c1ccc2c(c1)[nH]c1nc3nncn3nc12	2.51 µM [rising, single point]	
COc1ccc(-n2cc(C(=O)N(C)c3cc(C)ccc3OC)c3ccccc3c2=O)cc1	11.2 µM [rising, partial curve]	
Cc1ccc(/C=N/Nc2nc(C(C)(C)C)cs2)o1	0.708 µM [falling, full curve, poor fit]	0.891 µM [falling, full curve, poor fit]
Cc1cccc(NC(=O)C2CCN(S(=O)(=O)c3cccs3)CC2)n1	11.2 µM [rising, partial curve]	
O=C(CCc1ccccc1)NC(=S)Nc1ccc(S(=O)(=O)N2CCOCC2)cc1	35.5 µM [rising, single point]	35.5 µM [rising, single point]
CCOC(=O)N1CCN(S(=O)(=O)c2ccc(C(=O)Nc3ccc(F)cc3F)cc2)CC1	3.98 µM [falling, partial curve]	
CCOC(=O)C1C(=O)NC(SCC(N)=O)=C(C#N)C1c1ccccc1OCC (stereo not drawn)	0.891 µM [falling, full curve, poor fit]	
COc1ccc(CCn2c(=O)[nH]c3cc(C(=O)N4CCN(c5ccccc5)CC4)ccc3c2=O)cc1OC	8.91 µM [falling, partial curve, poor fit]	0.316 µM [falling, full curve, poor fit]
CCOC(=O)N1CCN(C(=O)C2CCN(S(=O)(=O)c3ccc(OC)cc3)CC2)CC1	0.00501 µM [falling, full curve, poor fit]	0.00447 µM [falling, full curve, poor fit]
Cc1ccc(-n2c(C)nn(Cc3ccc([N+](=O)[O-])cc3)c2=O)cc1	1.12 µM [falling, partial curve, poor fit]	
CCC(C)(C)n1nnnc1C(c1cc2ccc(C)cc2[nH]c1=O)N(Cc1cccnc1)Cc1ccco1 (stereo not drawn)	35.5 µM [falling, single point]	
Cc1cccc(CNc2nc(-c3c(C)noc3C)nc3ccccc23)c1	35.5 µM [falling, single point]	35.5 µM [falling, single point]
CC1=C(c2ccc(C)cc2)S(=O)(=O)N(Cc2ccc(C(=O)Nc3ccccc3C)cc2)C1=O	10 µM [rising, partial curve, poor fit]	
COc1ccc(-c2csc(N3CCC(C(N)=O)(N4CCCCC4)CC3)n2)cc1	35.5 µM [rising, single point]	
O=c1[nH]c2ccccc2c(O)c1SCCO		5.62 µM [rising, single point]
Cc1nc2ccccc2cc1OCc1ccc(F)cc1	7.94 µM [rising, partial curve]	10 µM [rising, partial curve, poor fit]

5 entries picked at random from those above:
Structure (SMILES)	AC50 [1]	AC50 [2]
O=C(N/N=C/C=C/c1ccccc1[N+](=O)[O-])c1cc(-c2cccnc2)nc2ccccc12	11.2 µM [rising, partial curve]	
O=c1[nH]c2ccccc2c(O)c1SCCO		5.62 µM [rising, single point]
O=C(NCc1ccc2c(c1)OCO2)c1cccc(C(=O)NCc2ccc3c(c2)OCO3)c1	17.8 µM [rising, partial curve]	17.8 µM [rising, partial curve]
O=C(Nc1ccc(Cl)cc1)NC1CCCc2ccccc21 (stereo not drawn)	35.5 µM [falling, single point]	
Cc1ccc(Nc2ncnc3c2cnn3-c2ccc(C)cc2)cc1	1.41 µM [falling, full curve]	1.26 µM [falling, full curve]
